The other results are listed elsewhere or left out.
Tests used:
Assay in all cases: log2 fold change, soluble protein after heating vs DMSO (PISA); higher = thermal stabilisation; K562 cells, 10 uM, 30 min; active = over 0.2 and 3.5 SD of the protein, either way, in both replicates (recomputed)
[1] = compound: CC[C@@H]1C(=O)N(C)c2cnc(Nc3ccc(C(=O)NC4CCN(C)CC4)cc3OC)nc2N1C1CCCC1
Outline: (§1)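 Quantification of soluble protein used TMTpro 16plex LC-MS/MS, with channel sums equalised. Samples were the supernatant after 21,000xg for 90 min of pooled aliquots from K562 cells (2×10^6 cells/mL) treated with 10 μM compound for 30 min, heated for 3 min over 48°C-58°C, and extracted in PBS with 0.5% NP-40 at 4°C. Values, from duplicates, describe thermal stability against control samples on a log2 fold-change scale.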

By UniProt entry, the sequences of proteins in these tests, tags left out. Where a name states a change or a piece, a line headed by the entry shows the natural chain unless it says otherwise.
UniProt Q75N03: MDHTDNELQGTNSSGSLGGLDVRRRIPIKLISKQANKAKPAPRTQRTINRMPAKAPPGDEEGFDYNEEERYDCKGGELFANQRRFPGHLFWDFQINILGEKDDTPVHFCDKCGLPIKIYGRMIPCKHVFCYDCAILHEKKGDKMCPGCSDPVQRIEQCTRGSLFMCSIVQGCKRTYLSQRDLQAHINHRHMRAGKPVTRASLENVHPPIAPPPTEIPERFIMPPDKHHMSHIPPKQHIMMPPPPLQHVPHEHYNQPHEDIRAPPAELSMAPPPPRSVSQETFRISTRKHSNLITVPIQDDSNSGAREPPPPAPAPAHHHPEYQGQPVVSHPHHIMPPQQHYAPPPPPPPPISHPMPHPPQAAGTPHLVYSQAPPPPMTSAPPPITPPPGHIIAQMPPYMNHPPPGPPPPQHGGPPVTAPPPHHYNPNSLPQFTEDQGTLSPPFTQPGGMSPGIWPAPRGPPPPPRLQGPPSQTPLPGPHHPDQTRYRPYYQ
UniProt Q04900: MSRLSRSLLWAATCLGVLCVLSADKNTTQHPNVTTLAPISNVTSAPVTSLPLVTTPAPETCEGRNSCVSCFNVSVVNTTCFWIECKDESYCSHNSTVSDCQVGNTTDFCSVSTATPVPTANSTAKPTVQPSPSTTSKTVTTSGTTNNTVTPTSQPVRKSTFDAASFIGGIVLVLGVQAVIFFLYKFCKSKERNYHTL
UniProt Q9BSQ5: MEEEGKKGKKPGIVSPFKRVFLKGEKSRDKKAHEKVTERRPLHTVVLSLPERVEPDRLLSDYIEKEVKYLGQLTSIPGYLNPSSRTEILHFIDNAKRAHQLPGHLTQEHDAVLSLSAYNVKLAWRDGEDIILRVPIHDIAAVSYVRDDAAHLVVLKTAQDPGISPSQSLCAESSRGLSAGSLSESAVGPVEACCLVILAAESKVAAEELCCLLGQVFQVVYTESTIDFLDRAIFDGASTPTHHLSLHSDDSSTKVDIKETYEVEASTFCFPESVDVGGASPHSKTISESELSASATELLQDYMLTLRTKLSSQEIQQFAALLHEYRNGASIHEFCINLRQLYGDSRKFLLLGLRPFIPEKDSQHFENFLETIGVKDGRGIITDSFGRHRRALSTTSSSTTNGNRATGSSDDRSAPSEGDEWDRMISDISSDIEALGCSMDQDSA
UniProt P33681, whole entry, looked up: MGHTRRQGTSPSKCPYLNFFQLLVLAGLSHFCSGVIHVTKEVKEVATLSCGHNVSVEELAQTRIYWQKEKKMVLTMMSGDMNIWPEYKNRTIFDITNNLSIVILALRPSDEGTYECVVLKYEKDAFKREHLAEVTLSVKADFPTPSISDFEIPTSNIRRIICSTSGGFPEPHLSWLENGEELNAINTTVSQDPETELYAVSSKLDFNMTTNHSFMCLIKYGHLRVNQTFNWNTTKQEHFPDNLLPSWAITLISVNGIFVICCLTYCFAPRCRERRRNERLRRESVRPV
UniProt P55211: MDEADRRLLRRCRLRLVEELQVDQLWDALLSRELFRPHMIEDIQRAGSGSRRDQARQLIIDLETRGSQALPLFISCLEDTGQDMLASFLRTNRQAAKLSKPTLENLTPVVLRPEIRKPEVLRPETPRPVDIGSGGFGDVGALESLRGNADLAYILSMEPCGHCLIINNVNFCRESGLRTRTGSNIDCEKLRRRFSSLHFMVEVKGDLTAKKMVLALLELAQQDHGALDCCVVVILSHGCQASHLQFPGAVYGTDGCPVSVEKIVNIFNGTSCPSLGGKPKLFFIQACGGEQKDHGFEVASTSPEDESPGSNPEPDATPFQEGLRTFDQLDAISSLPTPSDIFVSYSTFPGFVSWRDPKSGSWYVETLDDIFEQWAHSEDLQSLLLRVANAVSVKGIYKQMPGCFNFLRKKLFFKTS
UniProt Q6PK04: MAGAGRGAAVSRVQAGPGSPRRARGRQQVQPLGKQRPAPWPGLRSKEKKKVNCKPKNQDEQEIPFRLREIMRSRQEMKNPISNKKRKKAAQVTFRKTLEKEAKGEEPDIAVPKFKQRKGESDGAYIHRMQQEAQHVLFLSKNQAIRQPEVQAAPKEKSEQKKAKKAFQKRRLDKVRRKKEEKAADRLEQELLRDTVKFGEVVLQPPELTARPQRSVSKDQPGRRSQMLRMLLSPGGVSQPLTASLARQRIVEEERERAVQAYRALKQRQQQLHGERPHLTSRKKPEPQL
UniProt Q8TCZ2: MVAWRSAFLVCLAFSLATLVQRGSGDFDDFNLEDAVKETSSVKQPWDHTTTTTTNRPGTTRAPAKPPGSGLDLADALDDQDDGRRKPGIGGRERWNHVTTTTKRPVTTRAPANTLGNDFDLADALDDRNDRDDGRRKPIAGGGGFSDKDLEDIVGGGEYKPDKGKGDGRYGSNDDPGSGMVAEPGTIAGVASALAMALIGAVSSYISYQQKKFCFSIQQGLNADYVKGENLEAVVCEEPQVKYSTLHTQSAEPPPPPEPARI
UniProt Q5ZPR3: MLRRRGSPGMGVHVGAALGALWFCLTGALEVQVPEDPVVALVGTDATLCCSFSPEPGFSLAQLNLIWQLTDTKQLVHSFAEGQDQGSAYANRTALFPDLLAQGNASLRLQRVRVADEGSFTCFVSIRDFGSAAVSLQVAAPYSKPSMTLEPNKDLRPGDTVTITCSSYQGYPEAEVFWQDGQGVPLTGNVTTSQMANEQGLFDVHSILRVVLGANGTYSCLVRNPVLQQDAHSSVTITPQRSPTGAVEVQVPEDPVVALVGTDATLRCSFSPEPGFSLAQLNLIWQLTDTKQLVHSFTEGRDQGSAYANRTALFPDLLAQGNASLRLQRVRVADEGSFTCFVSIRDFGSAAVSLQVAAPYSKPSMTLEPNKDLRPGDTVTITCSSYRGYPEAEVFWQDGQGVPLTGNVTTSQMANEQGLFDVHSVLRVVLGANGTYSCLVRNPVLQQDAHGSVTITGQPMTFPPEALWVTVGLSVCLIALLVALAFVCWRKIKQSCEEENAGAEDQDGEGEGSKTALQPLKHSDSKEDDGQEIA
UniProt P30279, whole entry, looked up: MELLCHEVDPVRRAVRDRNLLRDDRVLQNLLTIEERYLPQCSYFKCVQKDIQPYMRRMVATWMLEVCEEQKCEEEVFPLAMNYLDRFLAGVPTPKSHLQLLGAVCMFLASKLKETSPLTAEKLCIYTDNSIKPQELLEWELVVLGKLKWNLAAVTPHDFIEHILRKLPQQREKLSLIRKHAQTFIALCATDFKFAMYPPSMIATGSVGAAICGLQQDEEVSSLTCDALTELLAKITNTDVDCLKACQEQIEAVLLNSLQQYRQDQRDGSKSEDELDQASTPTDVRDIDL
UniProt P34810: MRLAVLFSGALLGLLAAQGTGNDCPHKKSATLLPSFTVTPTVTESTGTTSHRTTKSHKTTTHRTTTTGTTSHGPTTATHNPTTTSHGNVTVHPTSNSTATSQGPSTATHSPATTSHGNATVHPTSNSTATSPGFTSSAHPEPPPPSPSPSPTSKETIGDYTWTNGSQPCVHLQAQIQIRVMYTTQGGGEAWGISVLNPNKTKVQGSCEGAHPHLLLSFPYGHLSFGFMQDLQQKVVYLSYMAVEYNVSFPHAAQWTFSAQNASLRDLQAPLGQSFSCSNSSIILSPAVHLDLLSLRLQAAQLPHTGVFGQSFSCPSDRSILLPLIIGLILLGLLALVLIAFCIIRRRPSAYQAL
UniProt P51636: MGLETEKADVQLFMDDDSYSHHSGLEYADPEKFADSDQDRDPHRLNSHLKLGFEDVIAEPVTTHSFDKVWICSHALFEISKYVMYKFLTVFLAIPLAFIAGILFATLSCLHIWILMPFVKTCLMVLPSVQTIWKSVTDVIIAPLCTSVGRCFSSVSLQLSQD
UniProt P21926: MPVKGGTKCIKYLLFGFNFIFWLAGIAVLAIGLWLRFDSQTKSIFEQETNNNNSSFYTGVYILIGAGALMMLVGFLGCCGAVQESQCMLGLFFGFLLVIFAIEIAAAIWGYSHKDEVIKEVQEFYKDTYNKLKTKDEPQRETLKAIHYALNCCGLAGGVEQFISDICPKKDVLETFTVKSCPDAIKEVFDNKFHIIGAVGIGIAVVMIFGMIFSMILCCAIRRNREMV
UniProt O14936: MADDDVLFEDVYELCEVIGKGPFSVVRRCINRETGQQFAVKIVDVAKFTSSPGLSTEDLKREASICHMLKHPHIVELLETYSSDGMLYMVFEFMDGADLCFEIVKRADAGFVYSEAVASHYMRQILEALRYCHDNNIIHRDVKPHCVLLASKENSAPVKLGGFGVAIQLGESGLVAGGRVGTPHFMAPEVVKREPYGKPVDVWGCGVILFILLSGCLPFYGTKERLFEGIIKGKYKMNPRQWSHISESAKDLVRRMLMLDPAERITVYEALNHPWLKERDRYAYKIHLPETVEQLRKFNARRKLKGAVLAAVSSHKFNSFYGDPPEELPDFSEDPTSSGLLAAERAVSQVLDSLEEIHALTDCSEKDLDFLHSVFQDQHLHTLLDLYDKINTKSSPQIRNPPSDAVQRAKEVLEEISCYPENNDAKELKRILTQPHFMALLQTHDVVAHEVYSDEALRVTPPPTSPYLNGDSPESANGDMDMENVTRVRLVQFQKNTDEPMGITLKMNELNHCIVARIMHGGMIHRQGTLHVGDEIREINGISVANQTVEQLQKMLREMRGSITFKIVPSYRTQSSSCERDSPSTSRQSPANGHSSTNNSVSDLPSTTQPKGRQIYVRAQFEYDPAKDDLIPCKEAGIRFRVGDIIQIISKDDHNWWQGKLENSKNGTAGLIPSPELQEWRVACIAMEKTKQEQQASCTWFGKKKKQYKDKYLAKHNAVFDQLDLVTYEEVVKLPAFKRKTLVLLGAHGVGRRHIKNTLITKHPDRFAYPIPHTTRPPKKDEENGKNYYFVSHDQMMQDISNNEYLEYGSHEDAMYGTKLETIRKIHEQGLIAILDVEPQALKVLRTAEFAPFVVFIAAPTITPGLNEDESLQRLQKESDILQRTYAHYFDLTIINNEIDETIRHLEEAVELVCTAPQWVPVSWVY
UniProt Q07108: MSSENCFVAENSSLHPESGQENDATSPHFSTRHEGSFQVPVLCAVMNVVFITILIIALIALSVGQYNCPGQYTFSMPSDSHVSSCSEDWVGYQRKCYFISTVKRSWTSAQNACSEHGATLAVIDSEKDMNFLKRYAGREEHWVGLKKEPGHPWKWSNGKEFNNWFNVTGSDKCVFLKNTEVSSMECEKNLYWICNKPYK
UniProt Q6YHK3: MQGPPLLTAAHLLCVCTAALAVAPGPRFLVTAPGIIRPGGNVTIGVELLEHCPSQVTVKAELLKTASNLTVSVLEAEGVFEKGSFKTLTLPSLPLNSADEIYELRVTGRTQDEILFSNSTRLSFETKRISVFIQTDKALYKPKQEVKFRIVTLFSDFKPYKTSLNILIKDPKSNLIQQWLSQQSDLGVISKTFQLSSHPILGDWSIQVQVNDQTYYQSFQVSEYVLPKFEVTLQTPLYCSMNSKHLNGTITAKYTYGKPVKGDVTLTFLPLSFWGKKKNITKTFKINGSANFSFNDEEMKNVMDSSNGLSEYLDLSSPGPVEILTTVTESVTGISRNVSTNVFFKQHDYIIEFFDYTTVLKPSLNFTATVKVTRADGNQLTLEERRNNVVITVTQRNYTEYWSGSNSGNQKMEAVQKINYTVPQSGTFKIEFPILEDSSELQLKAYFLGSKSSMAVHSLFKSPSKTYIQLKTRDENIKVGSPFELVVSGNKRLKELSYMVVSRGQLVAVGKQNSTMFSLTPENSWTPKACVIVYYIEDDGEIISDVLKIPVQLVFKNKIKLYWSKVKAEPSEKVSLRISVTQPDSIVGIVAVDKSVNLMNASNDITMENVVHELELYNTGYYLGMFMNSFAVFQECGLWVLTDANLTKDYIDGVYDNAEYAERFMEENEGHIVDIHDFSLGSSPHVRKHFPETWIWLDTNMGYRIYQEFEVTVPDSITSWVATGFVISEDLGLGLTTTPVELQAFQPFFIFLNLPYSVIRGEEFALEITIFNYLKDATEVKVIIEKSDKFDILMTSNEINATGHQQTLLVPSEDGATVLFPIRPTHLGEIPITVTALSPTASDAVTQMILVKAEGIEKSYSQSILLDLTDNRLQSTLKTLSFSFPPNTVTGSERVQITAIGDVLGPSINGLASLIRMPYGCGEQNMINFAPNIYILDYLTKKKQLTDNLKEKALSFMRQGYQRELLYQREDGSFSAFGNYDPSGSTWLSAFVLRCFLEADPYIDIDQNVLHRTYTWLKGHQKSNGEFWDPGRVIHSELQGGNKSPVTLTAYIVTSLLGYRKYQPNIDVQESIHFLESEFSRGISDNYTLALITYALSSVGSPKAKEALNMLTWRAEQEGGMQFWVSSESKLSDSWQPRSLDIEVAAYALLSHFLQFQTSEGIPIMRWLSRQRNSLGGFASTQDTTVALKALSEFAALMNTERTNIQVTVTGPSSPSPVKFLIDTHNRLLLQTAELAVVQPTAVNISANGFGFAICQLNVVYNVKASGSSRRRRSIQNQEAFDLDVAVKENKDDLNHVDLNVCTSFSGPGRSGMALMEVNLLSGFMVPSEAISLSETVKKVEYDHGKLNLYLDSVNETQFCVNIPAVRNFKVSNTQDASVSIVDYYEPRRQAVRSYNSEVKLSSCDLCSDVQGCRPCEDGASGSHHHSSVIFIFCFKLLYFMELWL

volasertib = compound: CC[C@@H]1C(=O)N(C)c2cnc(Nc3ccc(C(=O)N[C@H]4CC[C@H](N5CCN(CC6CC6)CC5)CC4)cc3OC)nc2N1C(C)C [volasertib]
Outline: as §1

[2] = compound: CC[C@H](C)N1C=C(C2=C(C=C(C=C21)C3=CN=C(C=C3)N4CCNCC4)C(=O)NCC5=C(C=C(NC5=O)C)C)C
Outline: as §1

[3] = compound: CCn1c(C(=O)N(C2CC2)C2CC2)cc2c3c(ncn3C)c(Nc3cc(C)n(C)n3)nc21
Outline: as §1

[4] = compound: CN(C)CC(=O)Nc1ccc2[nH]c(=O)c3ccccc3c2c1
Outline: as §1

[5] = compound: CN1C2=C(C3=C1C(=O)N(N=C3)CC4=CC(=CC=C4)N)SC(=C2)S(=O)C
Outline: as §1

saracatinib = compound: CN1CCN(CCOc2cc(OC3CCOCC3)c3c(Nc4c(Cl)ccc5c4OCO5)ncnc3c2)CC1 [saracatinib]
Outline: as §1

sotrastaurin = compound: CN1CCN(c2nc(C3=C(c4c[nH]c5ccccc45)C(=O)NC3=O)c3ccccc3n2)CC1 [sotrastaurin]
Outline: as §1

alvocidib = compound: CN1CC[C@H](c2c(O)cc(O)c3c(=O)cc(-c4ccccc4Cl)oc23)[C@H](O)C1 [alvocidib]
Outline: as §1

Tubastatin A = compound: CN1CCc2c(c3ccccc3n2Cc2ccc(C(=O)NO)cc2)C1 [Tubastatin A]
Outline: as §1

[6] = compound: CNC(=O)C1=CC=CC=C1NC2=NC(=NC=C2Cl)NC3=C(C=C(C=C3)N4CCOCC4)OC
Outline: as §1

defactinib = compound: CNC(=O)c1ccc(Nc2ncc(C(F)(F)F)c(NCc3nccnc3N(C)S(C)(=O)=O)n2)cc1 [defactinib]
Outline: as §1

rucaparib = compound: CNCc1ccc(-c2[nH]c3cc(F)cc4c3c2CCNC4=O)cc1 [rucaparib]
Outline: as §1

[7] = compound: CNc1nc(-c2ccc3c(N)n[nH]c3c2)cc(N2C[C@@H](C(=O)NC3CCCCC3)CC[C@H]2C)n1
Outline: as §1

encorafenib = compound: COC(=O)N[C@@H](C)CNc1nccc(-c2cn(C(C)C)nc2-c2cc(Cl)cc(NS(C)(=O)=O)c2F)n1 [encorafenib]
Outline: as §1

[8] = compound: COC(=O)[C@H](CCSC)NC(=O)C1=C(C=C(C=C1)NC[C@H](CS)N)C2=CC=CC=C2
Outline: as §1

epoxomicin = compound: CC[C@H](C)[C@@H](C(=O)N[C@@H]([C@@H](C)O)C(=O)N[C@@H](CC(C)C)C(=O)[C@]1(CO1)C)NC(=O)[C@H]([C@@H](C)CC)N(C)C(=O)C [epoxomicin]
Outline: as §1

[9] = compound: CCn1cc(-c2ccnc3[nH]c(-c4cccc(CN(C)C)c4)cc23)c(-c2ccc(NC(=O)N(C)C)cc2)n1
Outline: as §1

rosiglitazone = compound: CN(CCOC1=CC=C(C=C1)C[C@H]2C(=O)NC(=O)S2)C3=CC=CC=N3 (racemic) [rosiglitazone]
Outline: as §1

[10] = compound: CN1CCC(CNc2ccc3ncc(-c4cccc(OC(F)(F)F)c4)n3n2)CC1
Outline: as §1

Row | Target | log2 fold change [1] | log2 fold change (volasertib) | log2 fold change [2] | log2 fold change [3] | log2 fold change [4] | log2 fold change [5] | log2 fold change (saracatinib) | log2 fold change (sotrastaurin) | log2 fold change (alvocidib) | log2 fold change (Tubastatin A) | log2 fold change [6] | log2 fold change (defactinib) | log2 fold change (rucaparib) | log2 fold change [7] | log2 fold change (encorafenib) | log2 fold change [8] | log2 fold change (epoxomicin) | log2 fold change [9] | log2 fold change (rosiglitazone) | log2 fold change [10]
1 | CBLL1 (UniProt Q75N03) | inactive: 0.122 | inactive: -0.154 | inactive: 0.218 | inactive: -0.023 | inactive: -0.097 | inactive: -0.025 | inactive: -0.023 | inactive: 0.127 | inactive: -0.123 | inactive: -0.064 | inactive: 0.014 | inactive: -0.031 | inactive: 0.002 | inactive: 0.153 | inactive: 0.027 | inactive: 0.082 | – | – | – | –
2 | CD164 (UniProt Q04900) | inactive: -0.051 | – | inactive: 0.165 | inactive: -0.188 | inactive: 0.182 | – | – | inactive: -0.123 | inactive: -0.074 | – | inactive: -0.054 | inactive: 0.023 | inactive: 0.071 | – | inactive: 0.045 | inactive: 0.03 | inactive: 0.037 | inactive: -0.028 | inactive: 0.005 | inactive: -0.161
3 | CCM2 isoform 2 (UniProt Q9BSQ5) | inactive: -0.207 | active: -0.412 | – | – | inactive: -0.01 | inactive: -0.012 | inactive: -0.01 | inactive: 0.056 | – | inactive: 0.073 | inactive: -0.061 | inactive: -0.107 | inactive: 0.03 | inactive: 0.087 | inactive: 0.118 | inactive: -0.033 | inactive: 0.102 | inactive: -0.017 | – | inactive: -0.233
4 | CD80 (UniProt P33681) | inactive: 0.04 | inactive: 0.064 | inactive: -0.055 | inactive: -0.194 | – | inactive: -0.081 | inactive: 0.087 | inactive: -0.038 | inactive: 0.014 | inactive: -0.011 | inactive: 0.009 | – | inactive: 0.115 | inactive: 0.057 | inactive: -0.066 | – | – | inactive: 0.137 | – | inactive: 0.294
5 | CASP9 (UniProt P55211) | inactive: -0.083 | active: -0.629 | inactive: 0.008 | – | inactive: 0.048 | inactive: 0.001 | inactive: -0.206 | inactive: -0.25 | – | inactive: 0.098 | – | inactive: -0.165 | inactive: 0.161 | inactive: -0.051 | inactive: 0.012 | inactive: -0.035 | inactive: 0.054 | inactive: 0.035 | – | inactive: -0.188
6 | CCDC137 (UniProt Q6PK04) | inactive: 0.27 | – | inactive: -0.007 | inactive: -0.036 | inactive: -0.172 | inactive: 0.297 | inactive: 0.047 | inactive: 0.006 | inactive: 0.579 | inactive: 0.177 | inactive: -0.025 | inactive: 0.685 | inactive: 0.56 | inactive: 0.118 | inactive: 0.083 | inactive: -0.101 | inactive: -0.008 | inactive: 0.116 | inactive: -0.325 | inactive: 0.365
7 | CDC37 (UniProt K7EKQ2) | inactive: -0.091 | – | – | – | – | – | – | inactive: -0.276 | – | – | – | – | inactive: -0.095 | – | inactive: 0.044 | – | inactive: 0.29 | – | inactive: -0.167 | –
8 | CDC37 (UniProt K7EL68) | inactive: 0.013 | inactive: -0.14 | inactive: 0.039 | – | inactive: -0.027 | inactive: -0.068 | inactive: -0.173 | inactive: -0.191 | inactive: -0.253 | – | – | inactive: 0.049 | inactive: -0.057 | inactive: 0.118 | inactive: 0.215 | inactive: 0.079 | inactive: 0.032 | – | inactive: 0.121 | –
9 | CD99L2 isoform 5 (UniProt Q8TCZ2) | – | inactive: 0.105 | inactive: -0.06 | inactive: 0.008 | inactive: -0.076 | inactive: 0.084 | inactive: 0.07 | – | inactive: 0.02 | inactive: 0.073 | inactive: -0.047 | inactive: -0.013 | – | inactive: -0.023 | – | inactive: 0.205 | inactive: 0.004 | inactive: 0.036 | inactive: 0.017 | inactive: 0.073
10 | CD276 (UniProt Q5ZPR3) | – | – | – | – | – | – | – | – | – | – | – | – | – | – | – | – | – | inactive: -0.025 | inactive: 0.238 | inactive: 0.071
11 | CCND2 (UniProt P30279) | – | – | – | – | – | – | – | – | inactive: -0.097 | – | – | – | – | – | – | – | – | – | – | –
12 | CD68 (UniProt P34810) | – | – | – | – | – | – | – | inactive: -0.031 | – | – | inactive: 0.043 | – | – | – | – | – | – | – | – | –
13 | CAV2 (UniProt P51636) | – | inactive: -0.098 | inactive: -0.032 | – | – | inactive: 0.01 | inactive: -0.006 | inactive: 0.045 | – | inactive: 0.159 | inactive: -0.019 | – | – | inactive: 0.013 | – | – | – | inactive: -0.036 | – | inactive: 0.074
14 | CD9 (UniProt P21926) | – | – | – | – | – | inactive: -0.292 | inactive: -0.235 | inactive: -0.011 | inactive: -0.004 | inactive: -0.055 | – | – | – | inactive: 0.145 | – | – | inactive: -0.2 | inactive: -0.389 | – | inactive: -0.051
15 | CASK (UniProt O14936) | – | – | – | – | – | inactive: 0.014 | inactive: -0.068 | – | – | – | inactive: -0.064 | – | – | inactive: -0.009 | – | – | – | – | – | –
16 | CDADC1 (UniProt Q9BWV3) | – | – | – | – | inactive: 0.254 | – | – | – | – | – | – | inactive: 0.106 | – | – | – | inactive: -0.059 | – | – | – | –
17 | CD69 (UniProt Q07108) | – | inactive: 0.18 | inactive: 0.051 | – | inactive: -0.01 | – | – | inactive: -0.059 | inactive: 0.142 | – | – | inactive: -0.098 | – | – | – | inactive: 0.045 | inactive: 0.082 | inactive: 0.021 | inactive: -0.049 | inactive: 0.097
18 | CD109 (UniProt Q6YHK3) | – | – | – | – | inactive: 0.058 | inactive: 0.171 | inactive: 0.376 | – | – | – | – | inactive: -0.421 | – | inactive: 0.14 | – | inactive: 0.026 | – | inactive: -0.01 | – | inactive: 0.151

Single records, as listed above. Order of values: log2 fold change [1] | log2 fold change (volasertib) | log2 fold change [2] | log2 fold change [3] | log2 fold change [4] | log2 fold change [5] | log2 fold change (saracatinib) | log2 fold change (sotrastaurin) | log2 fold change (alvocidib) | log2 fold change (Tubastatin A) | log2 fold change [6] | log2 fold change (defactinib) | log2 fold change (rucaparib) | log2 fold change [7] | log2 fold change (encorafenib) | log2 fold change [8] | log2 fold change (epoxomicin) | log2 fold change [9] | log2 fold change (rosiglitazone) | log2 fold change [10]
CCDC137 (UniProt Q6PK04) in the list: inactive: 0.27 | – | inactive: -0.007 | inactive: -0.036 | inactive: -0.172 | inactive: 0.297 | inactive: 0.047 | inactive: 0.006 | inactive: 0.579 | inactive: 0.177 | inactive: -0.025 | inactive: 0.685 | inactive: 0.56 | inactive: 0.118 | inactive: 0.083 | inactive: -0.101 | inactive: -0.008 | inactive: 0.116 | inactive: -0.325 | inactive: 0.365
CCND2 (UniProt P30279) in the list: – | – | – | – | – | – | – | – | inactive: -0.097 | – | – | – | – | – | – | – | – | – | – | –
